Experimental data: the supplement of paper PMC4749390
Counter-ions that a name gives are not always drawn. This is one part of the list. Repeats in this data set agree poorly, so a single value says little.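 JEG3 cells stably express tetracycline-inducible wild-type human LRH-1, a highly sumoylated nuclear receptor. SUMO-sensitive transcripts APOC3 and MUC1, increased by SUMO-deficient LRH-1 or UBC9 knockdown, were quantified by RT-qPCR relative to TBP and DMSO controls. Primary hits had robust Z-scores above +2 or below -2, before toxicity and TBP filtering.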

tested on: JEG3 expressing hLRH-1; assay: MUC1 transcript change (ddCt vs TBP and DMSO), Z-score over library; higher = higher MUC1 expression; conditions: 10 µM; time (hr): 24

| Structure (SMILES) | MUC1 transcript change (Z-score) |
| --- | --- |
| CC1(C)C(C=C(Cl)Cl)C1C(=O)OCc1cccc(Oc2ccccc2)c1 (configuration not stated) [permethrin] | 1.44 |
| CCN1C[C@]2(COC)[C@H](O)C[C@H](OC)[C@@]34[C@@H]5C[C@@]6(O)[C@H](OC(=O)c7ccccc7)[C@@H]5[C@@](OC(C)=O)([C@@H]([C@H](OC)[C@H]23)[C@@H]14)[C@@H](O)[C@@H]6OC [aconitine] | 0.68 |
| NC(=O)CS(=O)C(c1ccccc1)c1ccccc1 (configuration not stated) [modafinil] | 0.506 |
| CNC(=O)Oc1ccc2c(c1)[C@]1(C)CCN(C)[C@@H]1N2C [(-)-Physostigmine] | 0.187 |
| C=C(C)C1CNC(C(=O)O)C1CC(=O)O (configuration not stated) [kainic acid] | -0.358 |
| CC[C@@H](c1cccc(O)c1)[C@@H](C)CN(C)C [tapentadol hydrochloride] | 0.387 |
| O=c1c2ccccc2[se]n1-c1ccccc1 [ebselen] | 1.15 |
| NCC(O)c1ccc(O)cc1 (racemic) [(±)-Octopamine hydrochloride] | 0.729 |
| N=C1NC(=O)N2CC12 (configuration not stated) [imexon] | 2.44 |
| Cc1cccc(C)c1NC1=NCCCS1 [Xylazine hydrochloride] | -0.00037 |
| C=C[C@H]1CN2CC[C@H]1C[C@@H]2[C@H](O)c1ccnc2ccccc12 [cinchonine] | 0.799 |
| C#C[C@@H]1CC2C3CCC4=C[C@@H](OC(C)=O)CCC4C3CC[C@]2(C)[C@H]1OC(C)=O (some centres not stated) [ethynodiol diacetate] | -0.501 |
| C[C@@H]1O[C@@H](O[C@H]2C[C@@H](O)[C@]3(CO)[C@H]4[C@H](O)C[C@]5(C)[C@@H](C6=CC(=O)OC6)CC[C@]5(O)[C@@H]4CC[C@]3(O)C2)[C@H](O)[C@H](O)[C@H]1O [ouabain] | -0.382 |
| C[C@]12CC[C@H]3[C@@H](CC[C@@]45O[C@@H]4C(O)=C(C#N)C[C@]35C)[C@@H]1CC[C@@H]2O [trilostane] | -0.0585 |
| COc1ccc(CCN2CCC(Nc3nc4ccccc4n3Cc3ccc(F)cc3)CC2)cc1 [astemizole] | 0.894 |
| O=[N+]([O-])O[C@@H]1CO[C@H]2[C@@H]1OC[C@@H]2O [isosorbide mononitrate] | -0.0407 |
| COc1ccc(Cc2nccc3cc(OC)c(OC)cc23)cc1OC [Papaverine hydrochloride] | -2.33 |
| C[N+]1(C)C2CCC1CC(OC(=O)C(CO)c1ccccc1)C2 (configuration not stated) [methylatropine nitrate] | 1.21 |
| CNCC(=O)c1ccc(O)c(O)c1 [adrenolone hydrochloride] | 0.0646 |
| COc1cc2c(cc1OC)[C@@]13CCN4CC5=CCO[C@H]6CC(=O)N2[C@H]1[C@H]6[C@H]5C[C@H]43 [brucine] | 0.754 |
| C[N+]1(C)C2CC(OC(=O)[C@@H](CO)c3ccccc3)CC1C1OC12 (stereo in doubt) [methscopolamine bromide] | 0.528 |
| CC(C)(C)NCC(O)c1cc(Cl)c(N)c(Cl)c1 (configuration not stated) [clenbuterol hydrochloride] | -0.246 |
| CCN(C(C)=O)c1cccc(-c2ccnc3c(C#N)cnn23)c1 [zaleplon] | 0.0394 |
| COC(=O)C1=CCCN(C)C1 [Arecoline hydrobromide] | 0.413 |
| Oc1noc2c1CCNC2 [THIP hydrochloride] | -0.925 |
| COc1cc([C@@H]2c3cc4c(cc3[C@H](O)[C@H]3COC(=O)[C@H]23)OCO4)cc(OC)c1OC [podofilox] | -0.447 |

18 consecutive entries out of the list so far, for reference:

| Structure (SMILES) | MUC1 transcript change (Z-score) |
| --- | --- |
| CNC(=O)Oc1ccc2c(c1)[C@]1(C)CCN(C)[C@@H]1N2C [(-)-Physostigmine] | 0.187 |
| C=C(C)C1CNC(C(=O)O)C1CC(=O)O (configuration not stated) [kainic acid] | -0.358 |
| CC[C@@H](c1cccc(O)c1)[C@@H](C)CN(C)C [tapentadol hydrochloride] | 0.387 |
| O=c1c2ccccc2[se]n1-c1ccccc1 [ebselen] | 1.15 |
| NCC(O)c1ccc(O)cc1 (racemic) [(±)-Octopamine hydrochloride] | 0.729 |
| N=C1NC(=O)N2CC12 (configuration not stated) [imexon] | 2.44 |
| Cc1cccc(C)c1NC1=NCCCS1 [Xylazine hydrochloride] | -0.00037 |
| C=C[C@H]1CN2CC[C@H]1C[C@@H]2[C@H](O)c1ccnc2ccccc12 [cinchonine] | 0.799 |
| C#C[C@@H]1CC2C3CCC4=C[C@@H](OC(C)=O)CCC4C3CC[C@]2(C)[C@H]1OC(C)=O (some centres not stated) [ethynodiol diacetate] | -0.501 |
| C[C@@H]1O[C@@H](O[C@H]2C[C@@H](O)[C@]3(CO)[C@H]4[C@H](O)C[C@]5(C)[C@@H](C6=CC(=O)OC6)CC[C@]5(O)[C@@H]4CC[C@]3(O)C2)[C@H](O)[C@H](O)[C@H]1O [ouabain] | -0.382 |
| C[C@]12CC[C@H]3[C@@H](CC[C@@]45O[C@@H]4C(O)=C(C#N)C[C@]35C)[C@@H]1CC[C@@H]2O [trilostane] | -0.0585 |
| COc1ccc(CCN2CCC(Nc3nc4ccccc4n3Cc3ccc(F)cc3)CC2)cc1 [astemizole] | 0.894 |
| O=[N+]([O-])O[C@@H]1CO[C@H]2[C@@H]1OC[C@@H]2O [isosorbide mononitrate] | -0.0407 |
| COc1ccc(Cc2nccc3cc(OC)c(OC)cc23)cc1OC [Papaverine hydrochloride] | -2.33 |
| C[N+]1(C)C2CCC1CC(OC(=O)C(CO)c1ccccc1)C2 (configuration not stated) [methylatropine nitrate] | 1.21 |
| CNCC(=O)c1ccc(O)c(O)c1 [adrenolone hydrochloride] | 0.0646 |
| COc1cc2c(cc1OC)[C@@]13CCN4CC5=CCO[C@H]6CC(=O)N2[C@H]1[C@H]6[C@H]5C[C@H]43 [brucine] | 0.754 |
| C[N+]1(C)C2CC(OC(=O)[C@@H](CO)c3ccccc3)CC1C1OC12 (stereo in doubt) [methscopolamine bromide] | 0.528 |

Additional compounds.

| Structure (SMILES) | MUC1 transcript change (Z-score) |
| --- | --- |
| CC(=O)O[C@H]1C[C@H](O[C@H]2[C@@H](O)C[C@H](O[C@H]3[C@@H](O)C[C@H](O[C@H]4CC[C@@]5(C)[C@H](CC[C@@H]6[C@@H]5C[C@@H](O)[C@]5(C)[C@@H](C7=CC(=O)OC7)CC[C@]65O)C4)O[C@@H]3C)O[C@@H]2C)O[C@H](C)[C@H]1O[C@@H]1O[C@H](CO)[C@@H](O)[C@H](O)[C@H]1O [lanatoside c] | -0.941 |
| O=[N+]([O-])OCC(CO[N+](=O)[O-])O[N+](=O)[O-] [nitroglycerin] | 1.33 |
| CCC1(C2=NCCN2)Cc2ccccc2O1 (configuration not stated) [efaroxan] | 0.0047 |
| CC[C@H]1CN2CCC1C[C@@H]2[C@@H](O)c1ccnc2ccc(OC)cc12 (some centres not stated) [hydroquinidine] | 1.27 |
| CC[C@@H](CO)NC(=O)[C@@H]1C=C2c3cccc4c3c(cn4C)C[C@H]2N(C)C1 [methysergide maleate] | 0.645 |
| CCN(C)C(=O)Oc1cccc([C@H](C)N(C)C)c1 [rivastigmine tartrate] | 0.5 |
| COc1ccc2c(c1OC)C(=O)O[C@@H]2[C@H]1c2cc3c(cc2CCN1C)OCO3 [hydrastine (1r, 9s)] | -0.084 |
| C[C@]12CC[C@H](O)CC1=CCC1C2CC[C@]2(C)C(=O)CC[C@@H]12 (some centres not stated) [prasterone] | -0.56 |
| C=C[C@H]1CN2CC[C@H]1C[C@@H]2[C@@H](OC(=O)OCC)c1ccnc2ccc(OC)cc12 [quinine ethyl carbonate] | 0.52 |
| CCCCCCCCCCCCCCCC[n+]1ccccc1 [cetylpyridinium chloride] | 0.69 |
| c1ccc2c(c1)Nc1ccccc1S2 [phenothiazine] | -0.536 |
| [NH2][Pt]1([NH2])[O]C(=O)C2(CCC2)C(=O)[O]1 [carboplatin] | 1.05 |
| c1ccc2c(c1)OCC(C1=NCCN1)O2 (configuration not stated) [idazoxan hydrochloride] | -0.898 |
| CCOP(=S)(OCC)Oc1nc(Cl)c(Cl)cc1Cl [chlorpyrifos] | -0.478 |
| CC(=O)NC1CCSC1=O (configuration not stated) [citiolone] | -0.561 |
| CNC(=O)Oc1ccccc1OC(C)C [propoxur] | -0.663 |
| COC(=O)C(c1ccccc1)C1CCCCN1 (configuration not stated) [methylphenidate hydrochloride] | 0.758 |
| CCOc1cc(C=O)ccc1O [ethyl vanillin] | -0.554 |
| C=C1C[C@@H]2[C@H](CC[C@]3(C)C(=O)CC[C@@H]23)[C@@]2(C)C=CC(=O)C=C12 [exemestane] | 0.0289 |
| CCNC1(c2cccs2)CCCCC1=O (configuration not stated) [tiletamine hydrochloride] | -0.239 |
| O=[N+]([O-])c1ccc([As](=O)(O)O)cc1 [nitarsone] | 1.23 |
| NN=C(N)N [Aminoguanidine hemisulfate] | -0.722 |
| CCC1(CC)C(=O)C=CNC1=O [pyrithyldione] | 0.212 |
| CN1C2CCC1CC(OC(=O)C(CO)c1ccccc1)C2 (configuration not stated) [Atropine sulfate] | 0.799 |
| O=C1CCO1 [beta-propiolactone] | -0.849 |
| CCC1(CC)C(=O)NC(=O)NC1=O [barbital] | -0.903 |

| Structure (SMILES) | MUC1 transcript change (Z-score) |
| --- | --- |
| CN1CC(CNC(=O)OCc2ccccc2)C[C@H]2c3cccc4c3c(cn4C)CC21 (stereo in doubt) [metergoline] | -0.843 |
| CC(C)c1c(CN(C)C(C)Cc2ccccc2)n(C)n(-c2ccccc2)c1=O (configuration not stated) [famprofazone] | 0.408 |
| CC[C@H]1CN2CCc3cc(OC)c(OC)cc3C2C[C@@H]1CC1NCCc2cc(OC)c(OC)cc21 (some centres not stated) [emetine] | 6.08 |
| COc1ccc(OC)c(C(O)C(C)N)c1 (configuration not stated) [Methoxamine hydrochloride] | -0.184 |
| NCCCNCCSP(=O)(O)O [amifostine] | 0.137 |
| Cc1cccc(C)c1NC(=O)CN1CCCC1=O [nefiracetam] | 0.491 |
| CCCCCCCCC(=O)NCc1ccc(O)c(OC)c1 [N-Vanillylnonanamide] | -0.0367 |
| CCCCCCCCCCNCCC.CCCN.CCCNCCCCCC[N+](C)(C)C.ClCC1CO1 [colesevalam hydrochloride (high mol wt copolymer @10mg/ml)] | 0.874 |
| CN(C)C(=O)Oc1ccc[n+](C)c1 [Pyridostigmine bromide] | -0.0612 |
| C[C@]12CCC(=O)C=C1C=CC1C2CC[C@@]2(C)C1CC[C@@]2(O)CCC(=O)O (some centres not stated) [canrenoic acid, potassium salt] | 0.517 |
| C[C@H](N)[C@H](O)c1ccccc1 [L(-)-Norephedrine] | 1.44 |
| CN1CCc2cc3c(cc2C1O)OCO3 (configuration not stated) [hydrastinine hydrochloride] | -0.23 |
| CN1[C@H]2C[C@H](OC(=O)[C@H](CO)c3ccccc3)C[C@@H]1[C@@H](O)C2 [anisodamine hydrobromide] | -0.145 |
| O=C(O)CCCO [sodium oxybate] | 1.03 |
| CNCC(O)c1ccc(O)cc1 (configuration not stated) [oxedrine] | -0.49 |
| CC[C@@H](CO)NC(=O)[C@@H]1C=C2c3cccc4[nH]cc(c34)C[C@H]2N(C)C1 [methylergonovine maleate] | 0.489 |
| CN1CCC[C@@H]1Cc1c[nH]c2cc(CCS(=O)(=O)c3ccccc3)ccc12 [eletriptan hydrobromide] | 0.394 |
| CC(C)C[C@H]1C(=O)N2CCC[C@H]2[C@]2(O)O[C@](NC(=O)[C@@H]3C=C4c5cccc6[nH]c(Br)c(c56)C[C@H]4N(C)C3)(C(C)C)C(=O)N12 [bromocriptine mesylate] | 0.287 |
| CC(C)=CC1C(C(=O)OCc2cccc(Oc3ccccc3)c2)C1(C)C (configuration not stated) [phenothrin] | 0.293 |
| CN1C(=O)CCS(=O)(=O)C1c1ccc(Cl)cc1 (configuration not stated) [Chlomezanone] | 0.675 |
| C#CC1(O)CCC2C3CCC4=CC(=O)CCC4(C)C3CCC21C (configuration not stated) [ethisterone] | 0.908 |
| CNC(C)(C)Cc1ccccc1 [mephentermine sulfate] | 1.09 |
| C[C@@H]1CC[C@H]2[C@@H](C)C(=O)O[C@@H]3O[C@@]4(C)CC[C@@H]1[C@]32OO4 [artemisinin] | -0.188 |
| c1ccc2nc(N3CCNCC3)ccc2c1 [Quipazine dimaleate] | -0.0671 |
| CC1[C@H](C)OC(=O)CC(O)CC(O)CC(O)CCC(O)C(O)C[C@]2(O)CC(O)C(C(=O)O)C(CC(OC3O[C@H](C)[C@@H](O)[C@H](N)[C@@H]3O)/C=C/C=C/C=C/C=C/CC/C=C/C=C/[C@H](C)[C@H]1O)O2 (some centres not stated) [nystatin] | 0.255 |
